Assay results reported in publication PMC8159967.
No constants are given. Whether binding was seen depends on the method and setting. In cells and extracts the contact can be indirect. Some results given as binding are weak or reduced against the parent protein; the word gives no strength.

The chains behind the UniProt entries cited, without tags or fusion partners. Residues count along the entry.
UniProt P05107, residues 23-769: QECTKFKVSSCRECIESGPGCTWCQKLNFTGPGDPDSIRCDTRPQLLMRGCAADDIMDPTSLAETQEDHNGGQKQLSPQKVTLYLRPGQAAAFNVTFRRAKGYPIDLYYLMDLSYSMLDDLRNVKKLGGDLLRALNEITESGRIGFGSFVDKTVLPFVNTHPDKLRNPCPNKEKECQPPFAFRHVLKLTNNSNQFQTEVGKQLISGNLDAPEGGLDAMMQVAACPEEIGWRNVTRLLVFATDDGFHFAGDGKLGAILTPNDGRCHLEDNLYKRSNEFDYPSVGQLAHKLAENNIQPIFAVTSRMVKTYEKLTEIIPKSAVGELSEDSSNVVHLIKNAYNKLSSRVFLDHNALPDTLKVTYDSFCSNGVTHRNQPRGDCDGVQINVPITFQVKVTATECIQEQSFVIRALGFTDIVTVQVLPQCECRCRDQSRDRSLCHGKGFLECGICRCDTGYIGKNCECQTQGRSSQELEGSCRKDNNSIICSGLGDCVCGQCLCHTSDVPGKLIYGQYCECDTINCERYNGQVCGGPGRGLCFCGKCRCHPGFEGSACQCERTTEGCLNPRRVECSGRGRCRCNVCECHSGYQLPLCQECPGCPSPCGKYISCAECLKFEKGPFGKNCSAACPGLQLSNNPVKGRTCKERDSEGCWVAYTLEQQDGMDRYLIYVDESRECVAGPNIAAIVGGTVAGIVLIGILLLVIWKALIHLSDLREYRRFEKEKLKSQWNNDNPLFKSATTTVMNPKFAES
UniProt P05106, residues 27-788: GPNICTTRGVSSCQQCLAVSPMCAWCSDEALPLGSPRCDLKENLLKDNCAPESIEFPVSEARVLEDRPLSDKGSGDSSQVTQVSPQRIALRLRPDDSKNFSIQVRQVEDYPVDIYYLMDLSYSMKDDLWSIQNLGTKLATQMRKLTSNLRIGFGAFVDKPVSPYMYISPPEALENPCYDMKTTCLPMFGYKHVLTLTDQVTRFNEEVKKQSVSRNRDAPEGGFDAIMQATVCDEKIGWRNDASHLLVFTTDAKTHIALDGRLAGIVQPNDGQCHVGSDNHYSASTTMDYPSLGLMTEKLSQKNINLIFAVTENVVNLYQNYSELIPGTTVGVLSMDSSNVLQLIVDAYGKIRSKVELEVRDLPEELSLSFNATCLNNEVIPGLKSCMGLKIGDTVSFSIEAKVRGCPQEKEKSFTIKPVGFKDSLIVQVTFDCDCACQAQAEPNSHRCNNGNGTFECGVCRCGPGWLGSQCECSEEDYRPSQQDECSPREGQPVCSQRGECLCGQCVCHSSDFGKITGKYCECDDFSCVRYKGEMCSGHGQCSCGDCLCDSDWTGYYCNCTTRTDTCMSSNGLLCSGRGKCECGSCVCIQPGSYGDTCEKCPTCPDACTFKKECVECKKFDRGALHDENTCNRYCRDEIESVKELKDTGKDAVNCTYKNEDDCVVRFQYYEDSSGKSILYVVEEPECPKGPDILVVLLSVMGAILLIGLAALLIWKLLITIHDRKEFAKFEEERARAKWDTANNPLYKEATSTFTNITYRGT
UniProt Q14344: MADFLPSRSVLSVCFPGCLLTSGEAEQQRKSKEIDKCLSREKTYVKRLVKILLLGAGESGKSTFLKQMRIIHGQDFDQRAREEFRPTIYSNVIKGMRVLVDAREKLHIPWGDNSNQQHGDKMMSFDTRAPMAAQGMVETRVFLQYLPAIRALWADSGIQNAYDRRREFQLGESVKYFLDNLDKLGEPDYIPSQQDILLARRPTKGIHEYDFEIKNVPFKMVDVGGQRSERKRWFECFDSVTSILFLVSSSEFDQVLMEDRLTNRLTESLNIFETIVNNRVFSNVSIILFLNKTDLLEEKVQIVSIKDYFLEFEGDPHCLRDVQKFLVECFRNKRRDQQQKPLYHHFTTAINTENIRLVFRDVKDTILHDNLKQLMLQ

Experiments:
[1] = biological target: integrin β2 subunit (human (endogenous in THP-1)) (UniProt P05107); assay: co-IP; PMA-differentiated THP-1 macrophages pretreated with MB2mP6 or control peptide HLPN (50 μM), stimulated with LPS (100 ng/mL) for various times, lysed in NP40 lysis buffer; precipitated with mouse anti-integrin β2 antibody 1.BB.246 overnight at 4 °C and protein A/G agarose; blots for β2 and Gα13
[2] = biological target: integrin β3 subunit (human (endogenous in human platelets)) (UniProt P05106); assay: co-IP; human platelets (5 × 10^8/mL) pretreated with MB2mP6 or control peptide HLPN (50 μM), stimulated with thrombin (0.025 U/mL) for various times, lysed in NP40 lysis buffer; precipitated with mouse anti-integrin β3 antibody M15 overnight at 4 °C and protein A/G agarose; blots for β3 and Gα13
[3] = biological target: Gα13 (human (endogenous in THP-1 cells and human platelets)) (UniProt Q14344); assay: co-IP; synthetic MB2mP6 in HLPN (50 μM) given to THP-1-derived macrophages before LPS and lysis; read-out: less Gα13 in the anti-β2 immunoprecipitate than with scrambled peptide; only the binder purified

binding [1]	binding [2]	binding [3]	Molecule
binds	binds		Gα13 (from UniProt Q14344 1-377)
		binds	FEKEKL (Myr- on the N-terminus (Myr-FEKEKL)) [MB2mP6 (Myr-FEKEKL)]
